Measured values: PMC2390528
Read-outs that look alike come from different tables or passages of the source. These are yes or no findings as the source states them, for the method shown. In cells and extracts the contact can be indirect. Some results given as binding are weak or reduced against the parent protein; the word gives no strength.

By UniProt entry, the sequences of proteins in these tests, tags left out.
UniProt Q14974: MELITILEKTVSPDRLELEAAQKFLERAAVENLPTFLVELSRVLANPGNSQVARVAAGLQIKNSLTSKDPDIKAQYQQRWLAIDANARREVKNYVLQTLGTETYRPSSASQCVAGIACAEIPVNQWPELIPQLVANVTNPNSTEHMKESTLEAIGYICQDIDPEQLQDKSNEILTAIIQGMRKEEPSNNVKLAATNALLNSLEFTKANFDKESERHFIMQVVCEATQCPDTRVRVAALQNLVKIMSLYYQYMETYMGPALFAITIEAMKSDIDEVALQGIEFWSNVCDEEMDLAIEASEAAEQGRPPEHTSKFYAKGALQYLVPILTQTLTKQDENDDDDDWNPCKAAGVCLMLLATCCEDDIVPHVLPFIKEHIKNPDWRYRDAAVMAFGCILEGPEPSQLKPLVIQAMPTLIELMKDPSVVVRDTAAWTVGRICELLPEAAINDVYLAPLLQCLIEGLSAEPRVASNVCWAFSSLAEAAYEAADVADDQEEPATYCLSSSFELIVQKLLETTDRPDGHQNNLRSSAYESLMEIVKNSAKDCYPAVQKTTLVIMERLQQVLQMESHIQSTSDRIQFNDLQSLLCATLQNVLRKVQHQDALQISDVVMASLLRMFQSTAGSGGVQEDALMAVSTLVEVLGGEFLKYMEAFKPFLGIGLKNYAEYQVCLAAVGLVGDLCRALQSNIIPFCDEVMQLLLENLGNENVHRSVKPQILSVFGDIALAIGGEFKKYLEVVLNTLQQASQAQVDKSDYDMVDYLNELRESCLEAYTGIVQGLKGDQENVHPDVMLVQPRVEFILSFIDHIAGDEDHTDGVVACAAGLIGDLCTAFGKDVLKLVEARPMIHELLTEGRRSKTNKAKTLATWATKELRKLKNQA
UniProt P14635: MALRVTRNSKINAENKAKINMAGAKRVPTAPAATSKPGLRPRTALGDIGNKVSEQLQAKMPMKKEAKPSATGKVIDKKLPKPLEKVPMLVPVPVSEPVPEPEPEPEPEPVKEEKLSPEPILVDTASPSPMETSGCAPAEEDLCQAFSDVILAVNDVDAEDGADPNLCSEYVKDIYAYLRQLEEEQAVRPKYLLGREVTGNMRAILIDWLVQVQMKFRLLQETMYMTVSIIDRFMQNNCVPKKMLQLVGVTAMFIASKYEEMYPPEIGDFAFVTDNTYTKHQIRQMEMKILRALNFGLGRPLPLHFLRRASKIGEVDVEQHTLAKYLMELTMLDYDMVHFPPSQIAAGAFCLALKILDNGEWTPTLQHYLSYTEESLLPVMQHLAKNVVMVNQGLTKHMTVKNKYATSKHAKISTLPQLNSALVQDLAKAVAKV
UniProt P53350: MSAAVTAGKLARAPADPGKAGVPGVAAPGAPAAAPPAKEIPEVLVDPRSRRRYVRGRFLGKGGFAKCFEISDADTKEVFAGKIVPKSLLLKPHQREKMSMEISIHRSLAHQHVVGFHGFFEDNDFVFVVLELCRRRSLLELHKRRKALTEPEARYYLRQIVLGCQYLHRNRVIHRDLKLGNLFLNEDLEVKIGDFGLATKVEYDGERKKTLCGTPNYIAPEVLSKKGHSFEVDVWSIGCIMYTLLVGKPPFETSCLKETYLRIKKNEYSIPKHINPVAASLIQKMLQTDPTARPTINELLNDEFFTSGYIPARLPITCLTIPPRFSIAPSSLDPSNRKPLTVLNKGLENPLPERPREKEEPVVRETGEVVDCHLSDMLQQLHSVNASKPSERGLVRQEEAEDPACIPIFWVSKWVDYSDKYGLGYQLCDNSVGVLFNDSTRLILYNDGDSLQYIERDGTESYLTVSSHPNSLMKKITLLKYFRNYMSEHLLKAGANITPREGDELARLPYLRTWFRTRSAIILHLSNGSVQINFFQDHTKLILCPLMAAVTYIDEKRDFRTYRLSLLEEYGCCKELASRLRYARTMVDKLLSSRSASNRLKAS
UniProt P12520: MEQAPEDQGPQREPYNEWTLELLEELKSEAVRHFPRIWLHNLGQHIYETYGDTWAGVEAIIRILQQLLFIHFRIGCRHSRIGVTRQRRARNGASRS

T1: 14-3-3 θ (human (endogenous in Jurkat)) (UniProt P27348)
T1 sequence: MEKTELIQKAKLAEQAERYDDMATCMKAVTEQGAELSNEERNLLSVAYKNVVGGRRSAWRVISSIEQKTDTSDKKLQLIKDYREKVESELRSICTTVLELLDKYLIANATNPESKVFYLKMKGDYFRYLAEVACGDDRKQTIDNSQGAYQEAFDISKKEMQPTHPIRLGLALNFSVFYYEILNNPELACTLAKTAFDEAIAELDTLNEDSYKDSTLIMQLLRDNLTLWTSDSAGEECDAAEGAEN


Columns and labels:
Test in all cases: co-IP
[1] = target: T1, 14-3-3 θ (human (endogenous in Jurkat))
[2] = target: importin β (human (endogenous in Jurkat)) (UniProt Q14974)
[3] = target: T1, 14-3-3 θ (human (endogenous in Jurkat)); remark: listed apart in the source

Row | Molecule | binding [1] | binding [2] | binding [3]
1 | CyclinB1 (from UniProt P14635 1-433) | binds | binds | –
2 | Polo-like kinase 1 (from UniProt P53350 1-603) | binds | binds | –
3 | HIV-1 Vpr (viral protein R), wild type, expressed from the NL4-3 provirus in infected cells (from UniProt P12520 1-96) | binds | – | –
4 | importin β (from UniProt Q14974 1-876) | binds | – | –
5 | Cdc25C phosphorylated on serine-216 (protein, UniProt P30307 1-473) MSTELFSSTREEGSSGSGPSFRSNQRKMLNLLLERDTSFTVCPDVPRTPVGKFLGDSANLSILSGGTPKRCLDLSNLSSGEITATQLTTSADLDETGHLDSSGLQEVHLAGMNHDQHLMKCSPAQLLCSTPNGLDRGHRKRDAMCSSSANKENDNGNLVDSEMKYLGSPITTVPKLDKNPNLGEDQAEEISDELMEFSLKDQEAKVSRSGLYRSPSMPENLNRPRLKQVEKFKDNTIPDKVKKKYFSGQGKLRKGLCLKKTVSLCDITITQMLEEDSNQGHLIGDFSKVCALPTVSGKHQDLKYVNPETVAALLSGKFQGLIEKFYVIDCRYPYEYLGGHIQGALNLYSQEELFNFFLKKPIVPLDTQKRIIIVFHCEFSSERGPRMCRCLREEDRSLNQYPALYYPELYILKGGYRDFFPEYMELCEPQSYCPMHHQDHKTELLRCRSQSKVQEGERQLREQIALLVKDMSP | – | – | binds
6 | Cdc25C (protein, UniProt P30307 1-473) MSTELFSSTREEGSSGSGPSFRSNQRKMLNLLLERDTSFTVCPDVPRTPVGKFLGDSANLSILSGGTPKRCLDLSNLSSGEITATQLTTSADLDETGHLDSSGLQEVHLAGMNHDQHLMKCSPAQLLCSTPNGLDRGHRKRDAMCSSSANKENDNGNLVDSEMKYLGSPITTVPKLDKNPNLGEDQAEEISDELMEFSLKDQEAKVSRSGLYRSPSMPENLNRPRLKQVEKFKDNTIPDKVKKKYFSGQGKLRKGLCLKKTVSLCDITITQMLEEDSNQGHLIGDFSKVCALPTVSGKHQDLKYVNPETVAALLSGKFQGLIEKFYVIDCRYPYEYLGGHIQGALNLYSQEELFNFFLKKPIVPLDTQKRIIIVFHCEFSSERGPRMCRCLREEDRSLNQYPALYYPELYILKGGYRDFFPEYMELCEPQSYCPMHHQDHKTELLRCRSQSKVQEGERQLREQIALLVKDMSP | – | – | binds
